According to US10550153B2 (Tokyo University of Pharmacy & Life Sciences, priority 2017, dated 2020):

Experiment: general procedure: Fmoc solid-phase peptide synthesis; Rink Amide resin (0.58 mmol/g, WATANABE CHEMICAL INDUSTRIES, LTD.)
Settings: whole synthesis; for isolated yield: scale of the general procedure 0.044 mmol (75 mg resin)

| Substance | isolated mass [mg] | isolated yield |
| --- | --- | --- |
| 3-Cyclohexylpropionyl-Leu-Dbu-Dbu-Pro-Arg-Asn-NH2 | 37.8 | yield 66% |
| 3-Cyclohexylpropionyl-Leu-Thr-Dbu-Pro-Arg-Asn-NH2 | 20.8 | yield 81% |
| 3-Cyclohexylpropionyl-Leu-Leu-Ala(3-Pyri)-Pro-Arg-Asn-NH2 | 37.4 | yield 74% |
| 3-Cyclohexylpropionyl-Leu-Asn-Dbu-Pro-Arg-Asn-NH2 | 29.8 | yield 63% |
| 3-Cyclohexylpropionyl-Leu-Leu-Ala(4-Pyri)-Pro-Arg-Asn-NH2 | 40.2 | yield 80% |
| {Propanoyl(3-cHex)}-LL[Dab]PRN-NH2 (SMILES CC(C)C[C@H](NC(=O)CCC1CCCCC1)C(=O)N[C@@H](CC(C)C)C(=O)N[C@@H](CCN)C(=O)N1CCC[C@H]1C(=O)N[C@@H](CCCNC(=N)N)C(=O)N[C@@H](CC(N)=O)C(N)=O) | 39.9 | yield 79% |
| 3-Cyclohexylpropionyl-Leu-Leu-Ala(2-Pyri)-Pro-Arg-Asn-NH2 | 6.1 | yield 12% |
| 3-Cyclohexylpropionyl-Asp-Leu-Dbu-Pro-Arg-Asn-NH2 | 35.2 | yield 74% |
| 1-Hexanoyl-Cha-Leu-Leu-Dbu-Pro-Arg-Asn-NH2 | 33.4 | yield 64% |
| 3-Cyclohexylpropionyl-Leu-Asp-Dbu-Pro-Arg-Asn-NH2 | 35.2 | yield 74% |

[ ]: non-standard residue; d: D form. The star is where a group is joined. Propanoyl(3-cHex) = O=C(CCC1CCCCC1)*; Dab = NCC[C@H](N)C(=O)O
